Changes are numbered by the printed parent chain. Results are given in words; binding and its absence hold for the method and conditions named. Some binding calls cover weakened binding; strength is not graded here.
Tests used:
human serum albumin [1] = biological target: T1, human serum albumin (human, UniProt P02768 25-609); assay: SPR (BIAcore), monomeric 6xHis-tagged VNAR
T1 construct: also called HSA; HAS

By UniProt entry, the sequences of proteins in these tests, tags left out. Residues count along the entry.
UniProt P02768, residues 25-609: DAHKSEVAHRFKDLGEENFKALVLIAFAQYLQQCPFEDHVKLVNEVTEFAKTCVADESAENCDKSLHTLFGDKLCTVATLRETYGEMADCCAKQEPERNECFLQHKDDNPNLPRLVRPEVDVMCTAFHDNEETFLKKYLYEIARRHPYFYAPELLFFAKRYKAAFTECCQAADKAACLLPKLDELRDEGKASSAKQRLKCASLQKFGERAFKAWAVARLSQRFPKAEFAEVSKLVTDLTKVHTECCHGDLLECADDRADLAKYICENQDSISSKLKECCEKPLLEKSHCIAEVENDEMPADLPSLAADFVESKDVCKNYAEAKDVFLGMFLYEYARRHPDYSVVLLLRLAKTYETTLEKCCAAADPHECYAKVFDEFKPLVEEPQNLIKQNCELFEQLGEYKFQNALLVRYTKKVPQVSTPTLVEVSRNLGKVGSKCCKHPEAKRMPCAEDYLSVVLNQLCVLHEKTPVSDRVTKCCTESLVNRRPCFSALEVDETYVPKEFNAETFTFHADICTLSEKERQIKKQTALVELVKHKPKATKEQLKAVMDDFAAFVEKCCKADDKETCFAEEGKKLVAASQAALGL
UniProt P07724, residues 25-608: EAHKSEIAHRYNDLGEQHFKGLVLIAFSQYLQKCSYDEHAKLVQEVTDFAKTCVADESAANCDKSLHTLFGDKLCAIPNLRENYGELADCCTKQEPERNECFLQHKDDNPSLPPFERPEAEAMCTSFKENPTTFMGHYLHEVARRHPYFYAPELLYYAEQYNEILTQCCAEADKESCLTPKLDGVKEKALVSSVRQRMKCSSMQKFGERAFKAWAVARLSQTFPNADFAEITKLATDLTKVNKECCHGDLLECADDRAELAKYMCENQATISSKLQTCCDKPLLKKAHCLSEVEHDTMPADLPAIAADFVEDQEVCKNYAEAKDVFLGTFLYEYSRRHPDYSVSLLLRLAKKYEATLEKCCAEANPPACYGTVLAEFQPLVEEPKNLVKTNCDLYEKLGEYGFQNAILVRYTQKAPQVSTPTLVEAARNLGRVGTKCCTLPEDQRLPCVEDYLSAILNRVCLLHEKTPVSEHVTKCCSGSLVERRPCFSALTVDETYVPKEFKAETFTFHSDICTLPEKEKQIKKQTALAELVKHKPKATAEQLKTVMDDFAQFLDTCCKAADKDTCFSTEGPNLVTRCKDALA
UniProt P02770, residues 25-608: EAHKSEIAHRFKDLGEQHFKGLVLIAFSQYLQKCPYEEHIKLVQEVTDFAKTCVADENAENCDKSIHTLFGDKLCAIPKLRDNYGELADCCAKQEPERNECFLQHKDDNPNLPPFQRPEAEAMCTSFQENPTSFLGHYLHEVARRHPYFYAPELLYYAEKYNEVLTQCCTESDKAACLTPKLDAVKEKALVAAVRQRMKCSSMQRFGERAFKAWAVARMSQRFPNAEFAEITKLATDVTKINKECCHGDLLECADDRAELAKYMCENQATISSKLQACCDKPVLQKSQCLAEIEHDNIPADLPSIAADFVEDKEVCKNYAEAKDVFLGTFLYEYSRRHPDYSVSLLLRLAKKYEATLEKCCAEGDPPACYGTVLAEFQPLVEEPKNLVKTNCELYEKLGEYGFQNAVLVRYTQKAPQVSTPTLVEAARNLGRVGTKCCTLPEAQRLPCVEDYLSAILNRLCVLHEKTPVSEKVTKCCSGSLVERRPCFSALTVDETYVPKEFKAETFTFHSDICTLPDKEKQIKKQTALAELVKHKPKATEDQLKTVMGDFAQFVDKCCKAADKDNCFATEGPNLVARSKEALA

mouse serum albumin [2] = biological target: T2, mouse serum albumin (mouse, UniProt P07724 25-608); assay: SPR (BIAcore), monomeric 6xHis-tagged VNAR
T2 construct: also called MSA; mouse albumin

rat serum albumin [3] = biological target: T3, rat serum albumin (rat, UniProt P02770 25-608); assay: SPR (BIAcore), monomeric 6xHis-tagged VNAR
T3 construct: also called RSA; rat albumin

human serum albumin [4] = biological target: T1, human serum albumin; assay: SPR (BIAcore), pH 7.4 and pH 6.0
mouse serum albumin [5] = biological target: T2, mouse serum albumin; assay: SPR (BIAcore), pH 7.4 and pH 6.0
rat serum albumin [6] = biological target: T3, rat serum albumin; assay: SPR (BIAcore), pH 7.4 and pH 6.0

Measured: binding

B1: huE06 v1.1 (VNAR)
VNAR: TRVDQSPSSLSASVGDRVTITCVLTDTSYPLYSTYWYQQKPGSSNKEQISISGRYSESVNKGTKSFTLTISSLQPEDFATYYCRAMGTNIWTGDGAGTKVEIKH
notes: Humanized VNAR; also called humanized E06 variant 1.1
binds: all assays above

B2: huE06 v1.10 (VNAR)
VNAR: B1 VNAR with Q38R, Q39K, K40N
notes: Humanized VNAR; also called hE06v1.10
binds: all assays above
